Test results published in article doi:10.1101/2019.12.19.883264.
Substitutions are numbered along the chain they refer to. No constants are given. Whether binding was seen depends on the method and setting. Binding seen in cells or lysates may run through a third protein. Some binding calls cover weakened binding; strength is not graded here. Sequences can lack the tags named with a protein.

By UniProt entry, the sequences of proteins in these tests, tags left out. Where a name states a change or a piece, a line headed by the entry shows the natural chain unless it says otherwise.
UniProt P06748, whole entry: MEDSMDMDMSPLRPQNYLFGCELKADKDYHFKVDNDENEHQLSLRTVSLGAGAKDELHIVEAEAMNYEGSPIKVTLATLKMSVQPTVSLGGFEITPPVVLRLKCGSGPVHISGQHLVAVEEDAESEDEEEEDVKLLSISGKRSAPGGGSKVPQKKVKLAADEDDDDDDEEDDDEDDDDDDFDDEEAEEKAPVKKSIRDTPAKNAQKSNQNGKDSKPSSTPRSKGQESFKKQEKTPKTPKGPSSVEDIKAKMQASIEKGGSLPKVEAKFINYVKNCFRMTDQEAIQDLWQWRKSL

Columns and labels:
[1] = molecular target: T1, GST tagged 14-3-3γ (UniProt P61981); experiment: pull-down
T1 sequence: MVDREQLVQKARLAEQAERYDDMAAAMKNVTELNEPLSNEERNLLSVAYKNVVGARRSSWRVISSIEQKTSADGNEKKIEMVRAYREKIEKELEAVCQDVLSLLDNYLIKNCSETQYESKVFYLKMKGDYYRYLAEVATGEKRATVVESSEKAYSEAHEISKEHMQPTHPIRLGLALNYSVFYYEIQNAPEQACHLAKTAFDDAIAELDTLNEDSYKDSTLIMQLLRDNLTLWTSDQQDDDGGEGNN

[2] = molecular target: T2, HA-epitope tagged 14-3-3γ D129A (UniProt P61981); experiment: co-IP
T2 sequence: T1 sequence with D129A

[3] = molecular target: T3, HA-epitope tagged 14-3-3γ E136A (UniProt P61981); experiment: co-IP
T3 sequence: T1 sequence with E136A

Row | binding [2] | binding [3] | Substance | binding [1]
1 |  |  | CFP tagged NPM1 S48A (from UniProt P06748 1-294) | no binding
2 |  |  | CFP tagged NPM1 S48E (from UniProt P06748 1-294) | binds
3 |  |  | CFP tagged NPM1 S218A (from UniProt P06748 1-294) | binds
4 |  |  | CFP tagged NPM1 S293A (from UniProt P06748 1-294) | binds
5 | binds | no binding | Nucleophosmin (NPM1), endogenous (from UniProt P06748 1-294) | 
